Test results: publication doi:10.1101/572156
Numbering of substitutions follows the chain as printed. Results are given in words; binding and its absence hold for the method and conditions named. In cells and extracts the contact can be indirect. Some results given as binding are weak or reduced against the parent protein; the word gives no strength. Where a sequence is shown, tags or fusion partners need not be part of it.

The chains behind the UniProt entries cited, without tags or fusion partners.
UniProt Q15717: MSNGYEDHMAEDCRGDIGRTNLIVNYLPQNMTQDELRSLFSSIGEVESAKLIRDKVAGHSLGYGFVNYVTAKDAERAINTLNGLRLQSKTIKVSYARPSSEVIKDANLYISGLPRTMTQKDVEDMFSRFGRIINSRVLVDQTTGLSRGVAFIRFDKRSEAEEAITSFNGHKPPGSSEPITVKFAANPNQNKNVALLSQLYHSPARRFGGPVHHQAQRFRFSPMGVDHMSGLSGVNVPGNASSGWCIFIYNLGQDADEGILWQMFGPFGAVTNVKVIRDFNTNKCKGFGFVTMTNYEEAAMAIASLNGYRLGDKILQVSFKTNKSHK

Experiments:
[1] = target: T1, FLAG-tagged DND1 R98A (full-length, RRM1 RNP1 RNA binding mutant) (human) (UniProt Q8IYX4); assay: co-IP
T1 sequence: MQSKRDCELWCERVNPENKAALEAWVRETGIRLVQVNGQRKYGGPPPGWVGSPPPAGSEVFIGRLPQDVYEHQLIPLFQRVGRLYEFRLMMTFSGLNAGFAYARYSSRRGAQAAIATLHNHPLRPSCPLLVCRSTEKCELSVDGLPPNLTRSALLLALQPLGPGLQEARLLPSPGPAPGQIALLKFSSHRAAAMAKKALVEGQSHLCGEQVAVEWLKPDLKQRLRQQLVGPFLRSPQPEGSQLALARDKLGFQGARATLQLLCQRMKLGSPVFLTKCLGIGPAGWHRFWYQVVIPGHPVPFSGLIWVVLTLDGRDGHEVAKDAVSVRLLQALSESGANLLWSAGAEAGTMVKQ

[2] = target: T2, FLAG-tagged DND1 wild-type (full-length human Dead End, 1-353) (human) (UniProt Q8IYX4); assay: co-IP
T2 sequence: T1 sequence with A98R

## ELAVL1/HuR (from UniProt Q15717 1-326)
[1]
  binding: binds
[2]
  binding: binds
